The entries are a selection whose mix differs from that of the whole data set. For part of these data: At the low end of the ranking the order means little. Some of the results follow. For part of these data: The exact form of the protein is not confirmed.
Assays:
HSF1 = HSF1 (UniProt Q00613); experiment: DAPPL (digital affinity profiling via proximity ligation, sequencing); details: 10 mM Tris-HCl pH 7.5, 50 mM NaCl, 1 mM DTT, 4% glycerol, room temperature, 30 min; GST-TFs on glutathione beads, 16-mer random dsDNA library, 0.1% …; high values mean tight binding; double strand, one strand shown; scale: fold enrichment (6-mer frequency, TF over GST control)
ELF2 = biological target: T1, ELF2 (UniProt Q15723); experiment: as above; details: 10 mM Tris-HCl pH 7.5, 50 mM NaCl, 1 mM DTT, 4% glycerol, room temperature, 30 min; GST-TFs on glutathione beads, 16-mer random dsDNA library, 0.1% …; high values mean tight binding; double strand, one strand shown; scale: fold enrichment (6-mer frequency, TF over GST control)
T1 sequence: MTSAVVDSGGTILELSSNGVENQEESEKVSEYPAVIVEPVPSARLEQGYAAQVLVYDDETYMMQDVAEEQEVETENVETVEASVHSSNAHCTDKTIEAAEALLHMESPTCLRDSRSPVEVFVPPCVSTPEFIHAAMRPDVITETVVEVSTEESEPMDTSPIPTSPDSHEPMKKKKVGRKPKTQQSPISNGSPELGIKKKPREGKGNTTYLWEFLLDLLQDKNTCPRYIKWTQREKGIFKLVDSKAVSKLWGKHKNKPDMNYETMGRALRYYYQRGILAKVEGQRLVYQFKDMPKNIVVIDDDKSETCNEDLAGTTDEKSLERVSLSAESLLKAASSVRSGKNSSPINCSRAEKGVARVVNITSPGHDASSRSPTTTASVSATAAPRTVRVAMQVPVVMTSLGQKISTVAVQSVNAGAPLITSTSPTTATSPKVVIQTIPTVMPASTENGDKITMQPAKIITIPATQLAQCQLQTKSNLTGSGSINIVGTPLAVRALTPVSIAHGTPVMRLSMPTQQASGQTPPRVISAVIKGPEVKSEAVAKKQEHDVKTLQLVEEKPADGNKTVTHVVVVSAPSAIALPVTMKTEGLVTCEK

Protein sequences, listed by entry. Tags and fused reporters are not part of them. Lines headed by an entry give the natural chain unless they say otherwise; changes in a name come on top.
UniProt Q00613: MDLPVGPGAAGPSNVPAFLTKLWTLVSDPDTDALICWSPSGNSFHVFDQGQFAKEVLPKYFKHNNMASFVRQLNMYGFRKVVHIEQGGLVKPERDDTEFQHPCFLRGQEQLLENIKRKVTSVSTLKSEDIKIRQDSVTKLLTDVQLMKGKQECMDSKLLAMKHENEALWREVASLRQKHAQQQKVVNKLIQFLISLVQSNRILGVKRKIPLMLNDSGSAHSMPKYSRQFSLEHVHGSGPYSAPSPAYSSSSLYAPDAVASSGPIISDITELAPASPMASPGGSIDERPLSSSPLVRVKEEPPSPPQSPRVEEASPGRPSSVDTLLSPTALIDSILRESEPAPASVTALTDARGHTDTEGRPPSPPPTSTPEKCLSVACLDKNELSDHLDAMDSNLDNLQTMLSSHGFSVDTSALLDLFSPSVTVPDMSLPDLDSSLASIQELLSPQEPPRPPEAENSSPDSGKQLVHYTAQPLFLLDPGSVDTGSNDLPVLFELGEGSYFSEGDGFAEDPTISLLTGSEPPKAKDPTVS

| Sequence | binding signal (HSF1) | binding signal (ELF2) |
| --- | --- | --- |
| AATGCT | 1.29 | 1.16 |
| TGCGCG | 1.15 | 1.04 |
| CACCAT | 0.862 | 1.04 |
| AGCTCC | 1.22 | 1.25 |
| TACTAA | 1.51 | 1.2 |
| TGCTGA | 0.959 | 1.06 |
